Experimental data: paper PMC9590138
Results are given in words; binding and its absence hold for the method and conditions named. For some assays here: In cells and extracts the contact can be indirect. Some binding calls cover weakened binding; strength is not graded here.

Amino acid sequences for entries named in this document (tags omitted). A change or cut given only in a name is not applied to a line headed by its entry. Residues count along the entry.
UniProt P06756: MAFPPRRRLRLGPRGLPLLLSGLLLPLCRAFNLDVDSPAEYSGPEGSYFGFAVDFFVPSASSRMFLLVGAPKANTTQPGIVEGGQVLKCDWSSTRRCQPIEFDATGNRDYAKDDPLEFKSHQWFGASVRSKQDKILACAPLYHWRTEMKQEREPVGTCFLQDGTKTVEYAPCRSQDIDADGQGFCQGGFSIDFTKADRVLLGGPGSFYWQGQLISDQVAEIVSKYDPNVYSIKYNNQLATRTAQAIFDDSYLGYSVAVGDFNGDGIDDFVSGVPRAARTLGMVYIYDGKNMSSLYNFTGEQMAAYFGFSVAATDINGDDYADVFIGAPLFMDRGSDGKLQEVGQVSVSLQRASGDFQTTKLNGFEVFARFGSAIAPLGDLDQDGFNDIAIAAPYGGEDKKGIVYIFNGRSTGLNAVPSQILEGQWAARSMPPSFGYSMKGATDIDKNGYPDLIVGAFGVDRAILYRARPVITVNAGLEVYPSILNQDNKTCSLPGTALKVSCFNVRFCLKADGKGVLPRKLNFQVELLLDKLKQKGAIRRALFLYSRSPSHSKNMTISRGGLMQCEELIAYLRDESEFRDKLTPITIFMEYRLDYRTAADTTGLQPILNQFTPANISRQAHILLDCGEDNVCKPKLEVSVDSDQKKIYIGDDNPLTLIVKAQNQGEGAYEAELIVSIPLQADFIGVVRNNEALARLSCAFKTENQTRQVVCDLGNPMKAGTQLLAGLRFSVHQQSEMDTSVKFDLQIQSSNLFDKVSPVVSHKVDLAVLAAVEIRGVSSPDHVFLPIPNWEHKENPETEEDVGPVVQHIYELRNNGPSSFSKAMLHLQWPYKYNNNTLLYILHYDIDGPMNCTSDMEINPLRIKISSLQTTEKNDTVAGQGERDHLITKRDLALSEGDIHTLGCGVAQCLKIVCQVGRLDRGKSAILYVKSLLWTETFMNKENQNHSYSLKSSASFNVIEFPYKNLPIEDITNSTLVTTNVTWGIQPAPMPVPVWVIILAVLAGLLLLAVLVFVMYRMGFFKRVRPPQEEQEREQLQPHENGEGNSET
UniProt P05106: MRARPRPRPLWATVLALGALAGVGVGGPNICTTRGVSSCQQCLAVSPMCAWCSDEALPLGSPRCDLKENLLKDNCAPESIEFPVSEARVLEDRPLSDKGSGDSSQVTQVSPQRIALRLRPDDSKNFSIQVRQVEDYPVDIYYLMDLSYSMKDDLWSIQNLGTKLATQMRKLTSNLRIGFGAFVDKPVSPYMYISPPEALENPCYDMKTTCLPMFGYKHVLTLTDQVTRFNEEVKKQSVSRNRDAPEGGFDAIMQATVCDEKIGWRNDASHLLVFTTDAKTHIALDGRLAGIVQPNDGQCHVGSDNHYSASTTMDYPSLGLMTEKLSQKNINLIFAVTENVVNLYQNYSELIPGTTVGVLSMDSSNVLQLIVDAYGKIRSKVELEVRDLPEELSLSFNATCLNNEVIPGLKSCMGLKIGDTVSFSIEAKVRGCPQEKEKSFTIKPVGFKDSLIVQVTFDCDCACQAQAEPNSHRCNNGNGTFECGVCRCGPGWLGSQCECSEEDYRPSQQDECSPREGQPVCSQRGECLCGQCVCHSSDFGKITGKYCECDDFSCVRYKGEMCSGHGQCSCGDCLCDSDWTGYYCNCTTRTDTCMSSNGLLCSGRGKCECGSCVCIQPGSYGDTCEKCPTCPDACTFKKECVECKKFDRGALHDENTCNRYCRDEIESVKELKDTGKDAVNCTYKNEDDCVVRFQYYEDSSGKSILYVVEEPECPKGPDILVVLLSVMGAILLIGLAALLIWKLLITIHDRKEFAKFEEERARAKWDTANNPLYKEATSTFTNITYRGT
UniProt P35968, residues 20-1356: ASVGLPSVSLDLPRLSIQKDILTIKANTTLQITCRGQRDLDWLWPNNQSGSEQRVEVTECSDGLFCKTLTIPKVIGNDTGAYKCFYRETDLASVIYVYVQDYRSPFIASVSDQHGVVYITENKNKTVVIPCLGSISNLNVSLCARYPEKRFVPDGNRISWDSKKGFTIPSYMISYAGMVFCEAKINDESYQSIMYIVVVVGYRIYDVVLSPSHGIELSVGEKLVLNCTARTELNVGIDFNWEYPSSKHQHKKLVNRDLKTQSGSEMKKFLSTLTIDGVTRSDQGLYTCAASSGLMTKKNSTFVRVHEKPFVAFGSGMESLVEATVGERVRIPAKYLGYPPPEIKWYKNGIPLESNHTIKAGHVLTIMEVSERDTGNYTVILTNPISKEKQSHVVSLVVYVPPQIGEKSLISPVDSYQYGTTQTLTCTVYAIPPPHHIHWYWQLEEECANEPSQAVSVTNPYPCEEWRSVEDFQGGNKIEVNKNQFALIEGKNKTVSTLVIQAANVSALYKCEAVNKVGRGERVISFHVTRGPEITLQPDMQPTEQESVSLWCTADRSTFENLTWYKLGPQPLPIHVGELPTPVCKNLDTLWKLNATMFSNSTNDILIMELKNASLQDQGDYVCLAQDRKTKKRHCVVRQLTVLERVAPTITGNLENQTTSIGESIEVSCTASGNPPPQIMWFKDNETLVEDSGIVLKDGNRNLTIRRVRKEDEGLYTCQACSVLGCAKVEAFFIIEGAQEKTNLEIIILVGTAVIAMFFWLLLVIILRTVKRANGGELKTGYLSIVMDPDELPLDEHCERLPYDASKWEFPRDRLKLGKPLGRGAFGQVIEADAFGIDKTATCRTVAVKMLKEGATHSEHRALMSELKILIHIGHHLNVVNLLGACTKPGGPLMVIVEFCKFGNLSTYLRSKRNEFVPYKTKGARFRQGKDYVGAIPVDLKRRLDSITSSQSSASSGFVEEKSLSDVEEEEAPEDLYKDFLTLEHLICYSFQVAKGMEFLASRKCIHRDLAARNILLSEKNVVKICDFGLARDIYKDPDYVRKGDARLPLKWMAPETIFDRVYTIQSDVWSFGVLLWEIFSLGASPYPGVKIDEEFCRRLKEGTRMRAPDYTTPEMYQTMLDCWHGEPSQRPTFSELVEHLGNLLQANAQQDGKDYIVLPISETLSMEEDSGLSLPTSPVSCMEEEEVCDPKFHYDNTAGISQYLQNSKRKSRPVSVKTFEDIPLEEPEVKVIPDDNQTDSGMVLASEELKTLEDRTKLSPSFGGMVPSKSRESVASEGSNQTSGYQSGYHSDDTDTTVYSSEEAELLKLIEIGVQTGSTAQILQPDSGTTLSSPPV

B1: EPCAM (endogenous) (protein, UniProt P16422 24-314)
chain: QEECVCENYKLAVNCFVNNNRQCQCTSVGAQNTVICSKLAAKCLVMKAEMNGSKLGRRAKPEGALQNNDGLYDPDCDESGLFKAKQCNGTSMCWCVNTAGVRRTDKDTEITCSERVRTYWIIIELKHKAREKPYDSKSLRTALQKEITTRYQLDPKFITSILYENNVITIDLVQNSSQKTQNDVDIADVAYYFEKDVKGESLFHSKKMDLTVNGEQLDLDPGQTLIYYVDEKAPEFSMQGLKAGVIAVIVVVVIAVVAGIVVLVISRKKRMAKYEKAEIKEMGEMHRELNA

Assays:
[1] = target: T1, integrin αvβ3 (endogenous) (human (endogenous in U87, U373, HUVEC)) (UniProt P06756+P05106); test: co-IP; HUVEC; co-immunoprecipitation, bait not told in the text shown (Fig. S14)
[2] = target: T2, membrane CD146 (endogenous) (human (endogenous in U87, U373, HUVEC)) (UniProt P43121); test: co-IP; U87 cells; immunoprecipitation with anti-CD146 antibody S-Endo1, blots with anti-VEGFR2, anti-αv, anti-β3 and anti-EPCAM
T2 sequence: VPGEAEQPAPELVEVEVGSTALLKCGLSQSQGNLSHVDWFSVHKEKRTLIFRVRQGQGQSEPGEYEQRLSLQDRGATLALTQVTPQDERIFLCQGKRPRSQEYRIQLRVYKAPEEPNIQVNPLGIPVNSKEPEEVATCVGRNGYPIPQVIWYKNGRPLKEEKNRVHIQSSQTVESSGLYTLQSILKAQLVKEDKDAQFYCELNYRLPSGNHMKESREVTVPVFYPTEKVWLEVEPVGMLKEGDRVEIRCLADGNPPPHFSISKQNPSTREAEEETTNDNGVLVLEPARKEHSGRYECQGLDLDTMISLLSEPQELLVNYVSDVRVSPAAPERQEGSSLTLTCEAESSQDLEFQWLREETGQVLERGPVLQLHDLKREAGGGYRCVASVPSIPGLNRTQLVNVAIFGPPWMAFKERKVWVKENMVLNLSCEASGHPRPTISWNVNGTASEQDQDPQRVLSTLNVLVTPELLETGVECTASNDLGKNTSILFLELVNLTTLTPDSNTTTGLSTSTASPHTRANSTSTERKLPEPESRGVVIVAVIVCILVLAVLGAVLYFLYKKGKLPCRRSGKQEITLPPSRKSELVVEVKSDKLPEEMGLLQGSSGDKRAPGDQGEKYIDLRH

[3] = target: T2, membrane CD146 (endogenous) (human (endogenous in U87, U373, HUVEC)); test: co-IP; U373 cells; as in U87: immunoprecipitation with anti-CD146 antibody S-Endo1 (Fig. S12A)
[4] = target: T2, membrane CD146 (endogenous) (human (endogenous in U87, U373, HUVEC)); test: co-IP; HUVEC; co-immunoprecipitation, bait not told in the text shown (Fig. S14)
[5] = target: T1, integrin αvβ3 (endogenous) (human (endogenous in U87, U373, HUVEC)); test: flow cytometry on cells; sCD146-FITC binding to U373 cells transfected with siRNA targeting αv, β3, αL or β2 (Fig. S8B); only the binder purified
[6] = target: T1, integrin αvβ3 (endogenous) (human (endogenous in U87, U373, HUVEC)); test: flow cytometry on cells; sCD146-FITC binding to U87 cells transfected with siRNA targeting αv, β3, αL or β2; only the binder purified
[7] = target: integrin αvβ3 expressed in CHO cells (UniProt P06756); test: flow cytometry on cells; sCD146-FITC binding to CHO cells co-transfected with plasmids encoding αv and β3 or control plasmids (mock); only the binder purified

Molecule	binding [1]	binding [2]	binding [3]	binding [4]	binding [5]	binding [6]	binding [7]
VEGFR2 (endogenous) (from UniProt P35968 20-1356) (receptor)	binds	binds	binds				
integrin αvβ3 (endogenous) (from UniProt P06756 31-1048; P05106 27-788) (receptor)		binds	binds	binds			
sCD146-FITC (from UniProt P43121 24-559) (ligand)					binds	binds	binds
B1		no binding	no binding				
